Measurements published in PubChem BioAssay AID743255 (National Center for Advancing Translational Sciences (NCATS), 2014).
About 910 (0.23%) of roughly 390,000 compounds were called active. The inconclusive results got no clear call from the source; some entries with a clear call stand among them for comparison. The call rests on the fitted dose curve; in most records, active means well fitted inhibition curve with a large enough effect; inconclusive means small, poorly fitted or top-dose-only effect; inactive means no such curve, though single readings can be large or run the other way. Potencies beside an inconclusive call are fits to weak or partial responses and may not hold up.

Amino acid sequences for entries named in this document (tags omitted). A change or cut given only in a name is not applied to a line headed by its entry.
UniProt O94782: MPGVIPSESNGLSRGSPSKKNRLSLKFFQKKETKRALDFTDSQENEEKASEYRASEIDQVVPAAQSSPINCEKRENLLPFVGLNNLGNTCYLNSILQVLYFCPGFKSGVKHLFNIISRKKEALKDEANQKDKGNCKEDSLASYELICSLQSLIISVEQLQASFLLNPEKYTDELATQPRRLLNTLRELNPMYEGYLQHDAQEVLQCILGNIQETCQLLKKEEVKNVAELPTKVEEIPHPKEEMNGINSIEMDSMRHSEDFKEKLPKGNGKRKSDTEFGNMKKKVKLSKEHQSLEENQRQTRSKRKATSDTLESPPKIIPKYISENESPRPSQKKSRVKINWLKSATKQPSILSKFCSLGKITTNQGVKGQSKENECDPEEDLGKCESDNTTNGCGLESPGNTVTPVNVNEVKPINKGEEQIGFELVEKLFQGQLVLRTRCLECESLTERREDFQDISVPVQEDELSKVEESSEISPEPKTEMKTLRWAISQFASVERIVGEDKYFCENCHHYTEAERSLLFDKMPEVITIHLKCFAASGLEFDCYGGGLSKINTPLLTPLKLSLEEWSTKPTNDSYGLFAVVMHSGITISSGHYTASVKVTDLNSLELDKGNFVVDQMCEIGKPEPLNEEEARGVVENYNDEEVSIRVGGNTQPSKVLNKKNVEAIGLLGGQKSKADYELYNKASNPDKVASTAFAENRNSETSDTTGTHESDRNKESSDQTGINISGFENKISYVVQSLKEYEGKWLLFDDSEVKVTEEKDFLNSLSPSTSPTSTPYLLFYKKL

molecular target: Ubiquitin carboxyl-terminal hydrolase 1 (Homo sapiens) (UniProt O94782); assay: Inhibitors of USP1/UAF1: Primary Screen; settings: recombinant USP1/UAF1, Ub-Rhodamine cleavage fluorescence; activity change, negative = inhibition: at 57.1 µM (top of the series); further: nearly all actives have a fitted effect of over 60% in size
Procedure, shortened: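 In this screen, compounds sit with the deubiquitinase complex (1nM) for 15 min at room temperature before Ub-Rho is added at 150nM final. Fluorescence rise is then followed for 6 reads every 60 seconds.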
On the % scale 0 is the no-effect control and ±100 the full control effect; potency means the concentration at half of the fitted maximal effect.

SMILES | activity change, negative = inhibition | Potency
COc1ccc(CNC(=O)C2CCN(c3nccs3)CC2)cc1 | inactive: -4.64% | –
CCN(CC)c1ccc(C(=O)NCc2ccc3c(c2)CCN3C(C)=O)cc1 | – | inconclusive: 0.224 µM [inhibitor, full curve, poor fit]
CCO[C@@H]1OC(C(=O)NC2CC2)=C[C@H](c2ccccc2)[C@H]1CCCO | – | inconclusive: 8.91 µM [inhibitor, partial curve, poor fit]
COc1ccc(CC(=O)Nc2cccc(-c3nnc(-c4ccccc4)o3)c2)cc1OC | – | inconclusive: 0.398 µM [inhibitor, full curve, poor fit]
Cc1ccc(-c2nc3sc(C#N)c(N)n3c(=O)c2C#N)cc1 | – | inconclusive: 7.94 µM [inhibitor, partial curve]
CC1CCN(c2nc3c(c(=O)[nH]c(=O)n3C)n2Cc2ccccc2)CC1 | – | inconclusive: 1.26 µM [inhibitor, full curve, poor fit]
COc1ccc(NC(=O)NCc2ccco2)c(OC)c1 | inactive: -13.6% | –
CCN(CCO)c1nc(N2CCCCC2)c2cnn(C)c2n1 | inactive: -22.1% | –
CCOc1ccc(N(CC)C(=O)CSc2n[nH]c(-c3ccccc3)n2)cc1 | – | inconclusive: 0.0282 µM [inhibitor, full curve, poor fit]
Cc1nc2ccccc2n1C1CCN(CC(=O)Nc2ccccc2Br)CC1 | inactive: -12.1% | –
O=C1/C(=C/c2cccs2)N=C(c2cccs2)N1Nc1ccccc1 | – | inconclusive: 31.6 µM [inhibitor, single point]
O=[N+]([O-])c1ccc(COc2cccc(CN3CCCC3)c2)cc1 | – | inconclusive: 35.5 µM [inhibitor, partial curve, poor fit]
O=C(CNc1ccc(Cl)c(C(F)(F)F)c1)N1CCN(S(=O)(=O)c2ccccc2)CC1 | inactive: -13% | –
S=c1[nH]nc(Cc2c[nH]c3ccccc23)o1 | – | inconclusive: 11.2 µM [inhibitor, partial curve, poor fit]
CCN(CC(=O)NC(C)(C)C)C(=O)c1cccc(S(=O)(=O)N2CC3(C)CC2CC(C)(C)C3)c1 (stereo unspecified) | – | inconclusive: 0.282 µM [inhibitor, full curve, poor fit]
COc1ccccc1N(C(=O)c1snc(C(N)=O)c1N)C(C(=O)NC1CCCC1)c1ccc(N(C)C)cc1 (stereo unspecified) | – | inconclusive: 0.708 µM [inhibitor, full curve, poor fit]
O=S(=O)(Nn1cnnc1)c1ccccc1 | inactive: -3.29% | –
C[C@@H](C(=O)Nc1cc(C(F)(F)F)ccc1N1CCOCC1)N1C(=O)C2CC=CCC2C1=O (stereo partly specified) | – | inconclusive: 35.5 µM [inhibitor, single point]
COC(=O)c1c(C)sc(-c2c(-c3cccc(Cl)c3)[nH]c3c2c(=O)[nH]c(=O)n3C)c1O | – | inconclusive: 6.31 µM [inhibitor, partial curve]
COc1ccc(OC)c2c1cc(C(=O)N[C@@H](Cc1ccccc1)C(=O)O)n2C | – | inconclusive: 35.5 µM [inhibitor, partial curve]
Cc1c(NC(=O)Nc2cccc(Cl)c2)c(=O)n(-c2ccccc2)n1C | inactive: -13.4% | –
C[C@H]1CN([C@@H](C)CO)C(=O)Cc2cc(NC(=O)CCC(F)(F)F)ccc2O[C@H]1CN(C)S(=O)(=O)c1ccc(Cl)cc1 | – | inconclusive: 0.282 µM [inhibitor, full curve, poor fit]

Whole records, quoted from the list. Order of values: activity change, negative = inhibition | Potency
`COc1ccc(CC(=O)Nc2cccc(-c3nnc(-c4ccccc4)o3)c2)cc1OC` is listed as – | inconclusive: 0.398 µM [inhibitor, full curve, poor fit]
`S=c1[nH]nc(Cc2c[nH]c3ccccc23)o1` is listed as – | inconclusive: 11.2 µM [inhibitor, partial curve, poor fit]
`O=C1/C(=C/c2cccs2)N=C(c2cccs2)N1Nc1ccccc1` is listed as – | inconclusive: 31.6 µM [inhibitor, single point]
`COc1ccc(NC(=O)NCc2ccco2)c(OC)c1` is listed as inactive: -13.6% | –

Later entries

SMILES | activity change, negative = inhibition | Potency
COc1ccc(NC(=S)Nc2ccc3nsnc3c2)cc1 | – | active: 5.62 µM
CC(C)(C)C1COc2ccccc2N1C(=O)c1ccccc1Cl (stereo unspecified) | – | inconclusive: 50.1 µM [inhibitor, partial curve, poor fit]
CCOC(=O)CNC(=O)CSc1nnc(-c2ccco2)n1N | inactive: -17.7% | –
Cc1nnc(NC(=O)c2ccc3ccccc3n2)s1 | – | inconclusive: 12.6 µM [inhibitor, partial curve, poor fit]
COc1ccc2oc(=O)cc(-c3cc4cccc(OC)c4o3)c2c1 | – | inconclusive: 0.224 µM [inhibitor, full curve, poor fit]
O=C(c1ccco1)N1CCN(C(=O)c2ccccc2OCc2ccccc2)CC1 | – | inconclusive: 4.47 µM [inhibitor, full curve, poor fit]
CC(C)c1ccc(-c2csc(NC(=O)c3cccs3)c2C(=O)O)cc1 | inactive: -26.8% | –
CC1CCN(C(=O)Cn2cnc3c(cnn3C(C)(C)C)c2=O)CC1 | inactive: -10.2% | –
COc1cc(OC)c(OC)cc1/C=C1\CC(C)C/C(=C\c2cc(OC)c(OC)cc2OC)C1=O (stereo unspecified) | – | active: 35.5 µM
CC(C)CC1C(=O)N(Cc2cn(CCC3OCCCO3)nn2)CCS(=O)(=O)N1Cc1ccc(-c2ccc(Cl)cc2)cc1 (stereo unspecified) | inactive: -23.9% | –
COc1cccc(N2CCN(C(=O)c3cccc(NC4=NC5CS(=O)(=O)CC5S4)c3)CC2)c1 (stereo unspecified) | – | inconclusive: 39.8 µM [inhibitor, partial curve, poor fit]
CCO[C@@H]1OC(C(=O)NCc2ccccc2)=C[C@H](c2csc3ccccc23)[C@H]1CCCO | – | inconclusive: 0.251 µM [inhibitor, full curve, poor fit]
O=C(c1noc2c1CCCC2)N1CCc2c([nH]c3ccccc23)C1c1ccccn1 (stereo unspecified) | – | inconclusive: 0.251 µM [inhibitor, full curve, poor fit]
Nc1ccc2nc(SCc3ccccc3F)sc2c1 | – | inconclusive: 6.31 µM [inhibitor, full curve, poor fit]
O=C(/N=C1\NC(=O)C(F)(C(F)(F)F)S1)NC1CCCCC1 (stereo unspecified) | inactive: -10.7% | –
COc1ccc(Cn2c(O)c(C=Nc3ccc(O)cc3)c3ccccc3c2=O)cc1 | – | inconclusive: 5.01 µM [inhibitor, partial curve]
CCSc1nc2c(c(=O)[nH]c(=O)n2C)n1CC(O)COc1ccc(Cl)cc1 (stereo unspecified) | – | inconclusive: 15.8 µM [inhibitor, partial curve, poor fit]
CC1(C)C(=O)C2(C(=O)NCc3ccccc3)CCC1C2 (stereo unspecified) | inactive: -19.7% | –
COCCn1nc2cc(C(=O)NCc3cc(C(F)(F)F)cc(C(F)(F)F)c3)ccc2c1OC | – | inconclusive: 5.62 µM [inhibitor, full curve, poor fit]
O=c1nc(-c2ccccc2)nc(-c2ccccc2)[nH]1 | – | inconclusive: 7.08 µM [inhibitor, single point]
CC(=O)Nc1ccc(-n2nnnc2SCC(=O)NC2CCCC2)cc1 | – | inconclusive: 0.355 µM [inhibitor, full curve, poor fit]
COc1ccccc1OCCn1c(-c2ccc(Br)cc2)nc2ccccc2c1=O | – | inconclusive: 0.398 µM [inhibitor, full curve, poor fit]

SMILES | activity change, negative = inhibition | Potency
CCCn1c(C)cc(-c2csc(NC(=O)CCc3nc4ccccc4c(=O)[nH]3)n2)c1C | – | inconclusive: 0.794 µM [inhibitor, full curve]
COc1ccc(Cl)cc1C(=O)NNC(=O)COC(=O)c1ccc(Br)o1 | – | inconclusive: 7.08 µM [inhibitor, full curve, poor fit]
CN(C)NC(=S)Nc1cccc(C(F)(F)F)c1 | – | inconclusive: 2.82 µM [inhibitor, full curve, poor fit]
COc1ccc(/C=C2\SC(=O)N(CCNC(=O)C3CC4C=CC3C4)C2=O)cc1 (stereo unspecified) | inactive: -25.6% | –
CC(C)c1ccc(/C=N\NC(=O)c2ccc(Cn3cccn3)o2)cc1 | inactive: -4.87% | –
CCOC(=O)C1CCN(CC(O)COc2ccc(C(C)=O)cc2)CC1 (stereo unspecified) | – | inconclusive: 0.794 µM [inhibitor, full curve, poor fit]
Cc1cc(C(=O)N/N=C2\CC(=O)c3ccccc32)c(C)n1-c1ccc(F)cc1 | – | inconclusive: 15.8 µM [inhibitor, partial curve]
O=C(O)c1cccc(N2C(=O)/C(=C/c3ccc(SCc4ccc(Cl)cc4)o3)SC2=S)c1 | – | inconclusive: 31.6 µM [inhibitor, partial curve, poor fit]
Cc1ccc(N(CC(=O)Nc2cccc(Cl)c2)S(=O)(=O)c2cccs2)cc1 | inactive: -13.1% | –
COc1cc(NC(=O)c2cn(C3CCCC3)c(=O)c3c2c2ccccc2n3C)cc(OC)c1OC | – | inconclusive: 17.8 µM [inhibitor, partial curve]
FC(F)(F)c1cccc(Cc2noc(CN3C[C@@H]4CCC[C@H]3C4)n2)c1 | inconclusive: -34.1% [inhibitor] | –
Cc1cc(NC(=O)Nc2nnc(N(C)Cc3ccccc3)s2)ccc1Br | – | active: 31.6 µM
Cc1ccc(O)c(NC(=O)c2cc(-c3ccccc3O)no2)c1 | – | inconclusive: 3.16 µM [inhibitor, partial curve]
Cn1cc(S(=O)(=O)N2CCOCC2)cc1C(=O)Nc1ccc(Cl)c(C(F)(F)F)c1 | inactive: -21.5% | –
CC(=O)Nc1ccc(S(=O)(=O)Oc2cccc(/C=C3\SC(N)=NC3=O)c2)cc1 | inactive: -0.742% | –
CC(C)(C)c1ccc(C(=O)Nc2ccc(N3CCOCC3)cc2)cc1 | – | inconclusive: 10 µM [inhibitor, partial curve, poor fit]
CN(C)Cc1c(O)ccc2c1O/C(=C\C=C\c1ccccc1)C2=O | – | inconclusive: 15.8 µM [inhibitor, partial curve]
CC(=O)N1CCC(N(Cc2ccc(C)o2)C(=O)Nc2ccc(C)cc2)CC1 | – | inconclusive: 63.1 µM [inhibitor, partial curve, poor fit]
N#Cc1ccc(NCCc2ccccn2)c([N+](=O)[O-])c1 | inactive: -20.3% | –
CCC(C)Sc1cccc(-c2nc3cnccn3c2NC2CCCCC2)c1 (stereo unspecified) | – | inconclusive: 20 µM [inhibitor, partial curve]
Cc1nc2ccc(S(=O)(=O)N(C)CC(=O)Nc3cccc(C(F)(F)F)c3)cc2s1 | inactive: -24.7% | –
CC1(C)C(=O)N(CC(=O)Nc2ccc(Br)cc2F)c2ccccc21 | – | inconclusive: 0.708 µM [inhibitor, full curve]
